The target of this assay is T1, ^35S-PEX26-myc (human) (UniProt Q7Z412).
T1 sequence: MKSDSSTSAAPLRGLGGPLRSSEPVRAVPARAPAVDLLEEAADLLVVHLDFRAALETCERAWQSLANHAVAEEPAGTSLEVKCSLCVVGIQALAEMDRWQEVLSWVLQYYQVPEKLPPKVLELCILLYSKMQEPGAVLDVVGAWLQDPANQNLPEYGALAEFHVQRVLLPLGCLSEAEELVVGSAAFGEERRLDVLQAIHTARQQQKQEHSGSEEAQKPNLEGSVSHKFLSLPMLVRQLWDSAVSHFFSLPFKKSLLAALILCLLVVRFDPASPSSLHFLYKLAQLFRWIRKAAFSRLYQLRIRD
Nature of the assay: pull-down; magnetic myc-Trap beads; in vitro synthesised 35S-PEX26-myc/35S-PEX19 as bait (nanograms) with in vitro synthesised 35S-labelled preys in buffer C (20 mM HEPES, 150 mM NaCl, 20% glycerol, pH 7.4, 0.02% Tween 20) with 2 mM ATP and 4 mM MgCl2; eluted with myc-peptide; autoradiography.

Sequences of proteins named here, by UniProt entry; tags and fusion partners are left off.
UniProt Q92968: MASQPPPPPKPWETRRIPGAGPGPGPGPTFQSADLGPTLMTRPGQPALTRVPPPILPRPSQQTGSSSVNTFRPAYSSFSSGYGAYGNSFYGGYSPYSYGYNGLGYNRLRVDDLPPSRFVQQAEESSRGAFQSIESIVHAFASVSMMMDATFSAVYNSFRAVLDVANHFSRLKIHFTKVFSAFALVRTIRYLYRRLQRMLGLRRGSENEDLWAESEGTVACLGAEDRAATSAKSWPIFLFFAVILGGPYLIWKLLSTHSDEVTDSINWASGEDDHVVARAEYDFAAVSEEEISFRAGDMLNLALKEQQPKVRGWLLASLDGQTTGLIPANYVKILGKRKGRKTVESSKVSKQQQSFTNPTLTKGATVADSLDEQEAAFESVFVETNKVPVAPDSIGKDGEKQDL
UniProt O75381: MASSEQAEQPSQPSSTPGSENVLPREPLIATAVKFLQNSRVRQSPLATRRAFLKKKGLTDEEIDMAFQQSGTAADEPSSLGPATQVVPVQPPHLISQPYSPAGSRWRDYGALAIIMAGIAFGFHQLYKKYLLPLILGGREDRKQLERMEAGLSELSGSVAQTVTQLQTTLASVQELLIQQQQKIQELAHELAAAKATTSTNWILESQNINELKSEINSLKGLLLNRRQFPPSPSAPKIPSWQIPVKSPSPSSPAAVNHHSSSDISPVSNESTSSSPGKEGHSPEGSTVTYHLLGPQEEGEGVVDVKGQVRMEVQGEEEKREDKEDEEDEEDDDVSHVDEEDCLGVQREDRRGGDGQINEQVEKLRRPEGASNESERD

These are yes or no findings as the source states them, for the method shown. Binding seen in cells or lysates may run through a third protein. Some binding calls cover weakened binding; strength is not graded here. Where a sequence is shown, tags or fusion partners need not be part of it.

For the substance ^35S-PEX13 (from UniProt Q92968 1-403), the binding result is “binds weakly”.
As for ^35S-PEX14 (from UniProt O75381 1-377), the entry is “binds”.

Values taken from paper PMC6207756.
